# In the supplement of paper PMC8728848:
# This is one part of the list.
# B1: GS7807Q-bfa-507-19-507 (Bacteroides fragilis) (protein)
# chain: ASCNKFDDLNTNPDAATKVTAPMLATKLILNITQQGSAKNFVYHSMLSKQIAWSENASDEQYNLFGRTDFDGYTILTNCQKMVDAANEGDKDSYAALAKFMKAYKLFYKSLEVGDIPYSDALKGEEGVQKPKYDTQKEVMRQVLEDLEEAYTLFSSGSDFDGDPIFGGDTENWKKTVVAFELKVLTHLCKKDTDADLKVKERFARLVSSGSLMTSNADNFQLVYSNKAGQLYPFYYTQNKHSDYLMMSSVIIDNLKKFNDYRMFYYASPAKAQTDKGIKDSEWDAYLSIDPSDSYSNISVLYGKGEFCLANLRYTRVPEGEPLMRLSYAEQNFILAEGAVRGWISEDASTYYKKGIEASMNFIADNTPDKEEYTHGRTITQEYIQEYLAQPVIQLSGDKEKDLEMILLQRYLASFLQHPYDAYYDYRRTGYPVLPINPSTNLNTEKNKIPTRWMYPEAEFSYNPDNANEAVQRQYNGSDDVNKLMWILQ
# What was measured:
# Test in all cases: glycan array binding signal (z-score within array); higher = stronger binding
# Details in all cases: glycan notation: IUPAC condensed, linker removed
# [1] = target: Neu5Ac(a2-6)Gal(b1-4)GlcNAc(b1-3)Gal(b1-4)GlcNAc(b1-3)GalNAc
# Summary of the method: (§1)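 The Consortium for Functional Glycomics database supplied 3228 glycan arrays, of which those lacking an available protein sequence were dropped. The binding signal, a within-array Z-score, was averaged across arrays of the same protein sequence and across linkers. Negative scores can be read as non-binding.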
# [2] = target: Neu5Ac(a2-6)Gal(b1-4)GlcNAc(b1-3)Gal(b1-4)GlcNAc(b1-3)[Neu5Ac(a2-6)Gal(b1-4)GlcNAc(b1-3)Gal(b1-4)GlcNAc(b1-6)]GalNAc
# Summary of the method: as §1
# [3] = target: Neu5Ac(a2-6)Gal(b1-4)GlcNAc(b1-3)Gal(b1-4)GlcNAc(b1-6)[Gal(b1-3)]GalNAc
# Summary of the method: as §1
# [4] = target: Neu5Ac(a2-6)Gal(b1-4)GlcNAc(b1-3)Gal(b1-4)[Fuc(a1-3)]GlcNAc(b1-3)Gal(b1-4)[Fuc(a1-3)]GlcNAc
# Summary of the method: as §1
# [5] = target: Neu5Ac(a2-6)Gal(b1-4)GlcNAc(b1-3)GalNAc
# Summary of the method: as §1
# [6] = target: Neu5Ac(a2-6)Gal(b1-4)GlcNAc(b1-3)[Neu5Ac(a2-6)Gal(b1-4)GlcNAc(b1-6)]GalNAc
# Summary of the method: as §1
# [7] = target: Neu5Ac(a2-6)Gal(b1-4)GlcNAc(b1-6)GalNAc
# Summary of the method: as §1
# [8] = target: Neu5Ac(a2-6)Gal(b1-4)GlcNAc(b1-6)[Gal(b1-3)GlcNAc(b1-3)]Gal(b1-4)Glc
# Summary of the method: as §1
# [9] = target: Neu5Ac(a2-6)Gal(b1-4)GlcNAc(b1-6)[Gal(b1-3)]GalNAc
# Summary of the method: as §1
# [10] = target: Neu5Ac(a2-6)Gal(b1-4)GlcNAc6S
# Summary of the method: as §1
# Neu5Ac(a2-6)GalNAc = target: Neu5Ac(a2-6)GalNAc
# Summary of the method: as §1
# [11] = target: Neu5Ac(a2-6)GalNAc(b1-4)GlcNAc
# Summary of the method: as §1
# [12] = target: Neu5Ac(a2-6)GalNAc(b1-4)GlcNAc6S
# Summary of the method: as §1
# [13] = target: Neu5Ac(a2-6)GlcNAc(b1-4)GlcNAc
# Summary of the method: as §1
# [14] = target: Neu5Ac(a2-6)GlcNAc(b1-4)GlcNAc(b1-4)GlcNAc
# Summary of the method: as §1
# Neu5Ac(a2-8)Neu5Ac = target: Neu5Ac(a2-8)Neu5Ac
# Summary of the method: as §1
# [15] = target: Neu5Ac(a2-8)Neu5Ac(a2-3)Gal(b1-3)GalNAc(b1-4)[Neu5Ac(a2-3)]Gal(b1-4)Glc
# Summary of the method: as §1
# [16] = target: Neu5Ac(a2-8)Neu5Ac(a2-3)Gal(b1-3)GalNAc(b1-4)[Neu5Ac(a2-8)Neu5Ac(a2-3)]Gal(b1-4)Glc
# Summary of the method: as §1
# [17] = target: Neu5Ac(a2-8)Neu5Ac(a2-3)Gal(b1-4)Glc
# Summary of the method: as §1
# [18] = target: Neu5Ac(a2-8)Neu5Ac(a2-3)Gal(b1-4)GlcNAc
# Summary of the method: as §1
# [19] = target: Neu5Ac(a2-8)Neu5Ac(a2-3)[Gal(b1-3)GalNAc(b1-4)]Gal(b1-4)Glc
# Summary of the method: as §1
# [20] = target: Neu5Ac(a2-8)Neu5Ac(a2-3)[GalNAc(b1-4)]Gal(b1-4)Glc
# Summary of the method: as §1
# [21] = target: Neu5Ac(a2-8)Neu5Ac(a2-8)Neu5Ac
# Summary of the method: as §1
# [22] = target: Neu5Ac(a2-8)Neu5Ac(a2-8)Neu5Ac(a2-3)Gal(b1-4)Glc
# Summary of the method: as §1
# [23] = target: Neu5Ac(a2-8)Neu5Ac(a2-8)Neu5Ac(a2-3)[Gal(b1-3)GalNAc(b1-4)]Gal(b1-4)Glc
# Summary of the method: as §1
# [24] = target: Neu5Ac(a2-8)Neu5Ac(a2-8)Neu5Ac(a2-3)[GalNAc(b1-4)]Gal(b1-4)Glc
# Summary of the method: as §1
# [25] = target: Neu5Ac(a2-8)Neu5Ac(a2-8)Neu5Ac(a2-8)Neu5Ac(a2-3)[GalNAc(b1-4)]Gal(b1-4)Glc
# Summary of the method: as §1
# [26] = target: Neu5Ac(a2-8)Neu5Gc(a2-3)Gal(b1-4)GlcNAc
# Summary of the method: as §1
# [27] = target: Neu5Ac(b2-6)Gal(b1-4)GlcNAc
# Summary of the method: as §1
# Neu5Ac(b2-6)GalNAc = target: Neu5Ac(b2-6)GalNAc
# Summary of the method: as §1
# [28] = target: Neu5Ac9Ac(a2-3)Gal(b1-3)GlcNAc
# Summary of the method: as §1
# [29] = target: Neu5Ac9Ac(a2-3)Gal(b1-4)GlcNAc
# Summary of the method: as §1
# [30] = target: Neu5Ac9Ac(a2-6)Gal(b1-4)GlcNAc
# Summary of the method: as §1
# [31] = target: Neu5Gc(a2-3)Gal(b1-3)GlcNAc
# Summary of the method: as §1
# [32] = target: Neu5Gc(a2-3)Gal(b1-3)[Fuc(a1-4)]GlcNAc
# Summary of the method: as §1
# Neu5Gc(a2-3)Gal(b1-4)Glc = target: Neu5Gc(a2-3)Gal(b1-4)Glc
# Summary of the method: as §1
# [33] = target: Neu5Gc(a2-3)Gal(b1-4)GlcNAc
# Summary of the method: as §1
# [34] = target: Neu5Gc(a2-3)Gal(b1-4)GlcNAc(b1-3)Gal(b1-4)GlcNAc(b1-2)Man(a1-3)[Neu5Gc(a2-3)Gal(b1-4)GlcNAc(b1-3)Gal(b1-4)GlcNAc(b1-2)Man(a1-6)]Man(b1-4)GlcNAc(b1-4)GlcNAc
# Summary of the method: as §1
# [35] = target: Neu5Gc(a2-3)Gal(b1-4)[Fuc(a1-3)]GlcNAc
# Summary of the method: as §1
# [36] = target: Neu5Gc(a2-6)Gal(b1-4)GlcNAc
# Summary of the method: as §1
# Neu5Gc(a2-6)GalNAc = target: Neu5Gc(a2-6)GalNAc
# Summary of the method: as §1
# [37] = target: Neu5Gc(a2-8)Neu5Ac(a2-3)Gal(b1-4)GlcNAc
# Summary of the method: as §1
# [38] = target: Neu5Gc(a2-8)Neu5Gc(a2-3)Gal(b1-4)GlcNAc
# Summary of the method: as §1
# [39] = target: Neu5Gc(a2-8)Neu5Gc(a2-3)Gal(b1-4)GlcNAc(b1-3)Gal(b1-4)GlcNAc
# Summary of the method: as §1
# [40] = target: Neu5Gc(a2-8)Neu5Gc(a2-6)Gal(b1-4)GlcNAc
# Summary of the method: as §1
# [41] = target: Neu5Gc(b2-6)Gal(b1-4)GlcNAc
# Summary of the method: as §1
binder,measurement,setting,value
B1,glycan array binding signal (z-score),[1],-0.779
same,glycan array binding signal (z-score),[2],0.237
same,glycan array binding signal (z-score),[3],0.189
same,glycan array binding signal (z-score),[4],-0.044
same,glycan array binding signal (z-score),[5],0.841
same,glycan array binding signal (z-score),[6],-0.829
same,glycan array binding signal (z-score),[7],0.777
same,glycan array binding signal (z-score),[8],1.67
same,glycan array binding signal (z-score),[9],-0.155
same,glycan array binding signal (z-score),[10],-0.159
same,glycan array binding signal (z-score),Neu5Ac(a2-6)GalNAc,-1.09
same,glycan array binding signal (z-score),[11],-0.986
same,glycan array binding signal (z-score),[12],0.074
same,glycan array binding signal (z-score),[13],0.085
same,glycan array binding signal (z-score),[14],0.554
same,glycan array binding signal (z-score),Neu5Ac(a2-8)Neu5Ac,0.524
same,glycan array binding signal (z-score),[15],1.17
same,glycan array binding signal (z-score),[16],-0.632
same,glycan array binding signal (z-score),[17],-0.724
same,glycan array binding signal (z-score),[18],-0.974
same,glycan array binding signal (z-score),[19],-1.18
same,glycan array binding signal (z-score),[20],2.14
same,glycan array binding signal (z-score),[21],0.102
same,glycan array binding signal (z-score),[22],-0.141
same,glycan array binding signal (z-score),[23],-0.185
same,glycan array binding signal (z-score),[24],0.616
same,glycan array binding signal (z-score),[25],1.51
same,glycan array binding signal (z-score),[26],-0.174
same,glycan array binding signal (z-score),[27],-0.954
same,glycan array binding signal (z-score),Neu5Ac(b2-6)GalNAc,-0.441
same,glycan array binding signal (z-score),[28],-0.356
same,glycan array binding signal (z-score),[29],-0.209
same,glycan array binding signal (z-score),[30],-0.972
same,glycan array binding signal (z-score),[31],-0.321
same,glycan array binding signal (z-score),[32],0.879
same,glycan array binding signal (z-score),Neu5Gc(a2-3)Gal(b1-4)Glc,-1.1
same,glycan array binding signal (z-score),[33],-0.666
same,glycan array binding signal (z-score),[34],-0.023
same,glycan array binding signal (z-score),[35],-1.07
same,glycan array binding signal (z-score),[36],0.462
same,glycan array binding signal (z-score),Neu5Gc(a2-6)GalNAc,-0.166
same,glycan array binding signal (z-score),[37],-0.268
same,glycan array binding signal (z-score),[38],-0.264
same,glycan array binding signal (z-score),[39],-1.65
same,glycan array binding signal (z-score),[40],0.06
same,glycan array binding signal (z-score),[41],-0.25

# Not a retest: entries from further up.
binder,measurement,setting,value
B1,glycan array binding signal (z-score),[8],1.67
same,glycan array binding signal (z-score),[9],-0.155
same,glycan array binding signal (z-score),[10],-0.159
